No constants are given. Whether binding was seen depends on the method and setting. Binding can be weak; no strength is given. Tags and fused reporters may be left off the sequences shown.
Columns and labels:
[1] = target: Fcγ-receptor IV (mice); assay: flow cytometry on HeLa cells expressing FcγRIV (FIG. 56E)
[2] = target: Fcγ-receptor IV (mice); assay: flow cytometry on HeLa cells expressing FcγRIV
[3] = target: Fcγ-receptor IV (mice); assay: flow cytometry saturation binding curves (FIG. 61D)

binding [1]: binds
binding [2]: binds
binding [3]: binds
B1: polypeptide comprising a first and second Fc fragment of rabbit IgG in dimeric form (Fc fusion)
chain: GGSHHHHHHGMASMTGGQQMGRDLYDDDDKAPSTCSKPTCPPPELLGGPSVFIFPPKPKDTLMISRTPEVTCVVVDVSQDDPEVQFTWYINNEQVRTARPPLREQQFNSTIRVVSTLPIAHQDWLRGKEFKCKVHNKALPAPIEKTISKARGQPLEPKVYTMGPPREELSSRSVSLTCMINGFYPSDISVEWEKNGKAEDNYKTTPAVLDSDGSYFLYSKLSVPTSEWQRGDVFTCSVMHEALHNHYTQKSISRSPGKDIVRSSKPTCPPPELLGGPSVFIFPPKPKDTLMISRTPEVTCVVVDVSQDDPEVQFTWYINNEQVRTARPPLREQQFNSTIRVVSTLPIAHQDWLRGKEFKCKVHNKALPAPIEKTISKARGQPLEPKVYTMGPPREELSSRSVSLTCMINGFYPSDISVEWEKNGKAEDNYKTTPAVLDSDGSYFLYSKLSVPTSEWQRGDVFTCSVMHEALHNHYTQKSISRSPGK

Source: patent publication US20140294817A1
